Assay results reported in EP2078752A2.
These are yes or no findings as the source states them, for the method shown. Some binding calls cover weakened binding; strength is not graded here.

Experiments:
[1] = target: T1, endogenous ALK-2 (activin type I receptor) of PAE/Chim A porcine aortic endothelial cells (porcine), E9M2M1; test: affinity cross-linking of 125I-activin A on PAE/Chim A cells then immunoprecipitation; settings: remark: other sources report otherwise
T1 chain: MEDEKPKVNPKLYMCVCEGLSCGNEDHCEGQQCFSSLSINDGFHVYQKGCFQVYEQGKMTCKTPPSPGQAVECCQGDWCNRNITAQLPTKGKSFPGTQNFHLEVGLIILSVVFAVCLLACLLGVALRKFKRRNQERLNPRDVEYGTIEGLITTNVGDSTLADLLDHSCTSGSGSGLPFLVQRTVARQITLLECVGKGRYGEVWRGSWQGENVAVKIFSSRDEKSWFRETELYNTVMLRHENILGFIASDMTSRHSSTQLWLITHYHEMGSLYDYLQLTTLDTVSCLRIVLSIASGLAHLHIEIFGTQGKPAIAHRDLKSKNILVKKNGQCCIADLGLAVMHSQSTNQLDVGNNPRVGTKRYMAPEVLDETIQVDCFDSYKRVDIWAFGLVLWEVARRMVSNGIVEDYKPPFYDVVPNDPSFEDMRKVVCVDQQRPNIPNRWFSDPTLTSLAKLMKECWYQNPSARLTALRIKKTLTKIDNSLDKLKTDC

[2] = target: T2, human ALK-2 (clone HP53) (human), Q04771; test: affinity cross-linking of 125I-activin A then immunoprecipitation, COS-1 cells co-transfected with ActR-II; settings: remark: other sources report otherwise
T2 chain: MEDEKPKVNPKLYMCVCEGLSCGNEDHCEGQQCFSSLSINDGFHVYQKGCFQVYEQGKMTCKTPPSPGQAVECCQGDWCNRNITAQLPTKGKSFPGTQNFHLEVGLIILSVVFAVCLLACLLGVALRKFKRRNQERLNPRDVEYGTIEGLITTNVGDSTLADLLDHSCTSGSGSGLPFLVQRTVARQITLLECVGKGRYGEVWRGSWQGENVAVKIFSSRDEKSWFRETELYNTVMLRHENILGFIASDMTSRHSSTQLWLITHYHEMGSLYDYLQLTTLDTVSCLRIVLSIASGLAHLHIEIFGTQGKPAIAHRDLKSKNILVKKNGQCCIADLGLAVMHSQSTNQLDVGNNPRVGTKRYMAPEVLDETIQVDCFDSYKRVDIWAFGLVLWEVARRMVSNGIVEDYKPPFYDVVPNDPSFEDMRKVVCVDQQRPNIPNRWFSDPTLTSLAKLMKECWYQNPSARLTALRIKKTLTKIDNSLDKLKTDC

B1: recombinant human activin A, iodinated (^125I-activin A), P08476 311-426 (ligand, UniProt P08476 311-426, looked up)
chain: GLECDGKVNICCKKQFFVSFKDIGWNDWIIAPSGYHANYCEGECPSHIAGTSGSSLSFHSTVINHYRMRGHSPFANLKSCCVPTKLRPMSMLYYDDGQNIIKKDIQNMIVEECGCS
modifications: here or on the partner: 125I-iodinated by the chloramine T method
- binding [1]: binds
- binding [2]: binds
